In PubChem BioAssay AID1487 (National Center for Advancing Translational Sciences (NCATS), 2009):
“And” between values parts separate entries of the source, which are not always exact repeats. Equal values may be shown once. The list shows a part of the results. Shown are side measurements of this screen, not its main read-out; they come without a call. The list favours compounds with an active or inconclusive main result. Words in brackets tell the shape of the fitted curve; partial curves, single points and poor fits give uncertain potencies.

Experiment: qHTS Assay for Modulators of Lamin A Splicing
Settings: HeLa LMNA splicing GFP/RFP minigene ratio, 48 h
In short: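 S3 HeLa cells stably expressing lamin A-EGFP splicing minigene plus DsRed2, 600 cells/well, 48 h compound exposure at 37C. Laser-scanning cytometry; analysed as GFP (500-530 nm)/RFP (575-640 nm) total intensity ratio; 0.5% DMSO vehicle.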

[1] = measured here: RFP viability control channel
[2] = measured here: GFP splicing reporter channel

Q: With N#Cc1ccc(-c2nc3ccccc3nc2-c2ccccc2)cc1C#N as the compound, how does the AC50 [1] read?
A: The AC50 was 6.31 µM [rising, single point].

Q: Which AC50 [2] does the source give for O=C(c1cn(-c2ccccc2)nc1-c1cccs1)N1CCN(c2ccc(F)cc2)CC1 here?
A: The AC50 was 12.6 µM [rising, partial curve].

Q: And the AC50 [1]?
A: Its AC50 is 15.8 µM [rising, single point].

Q: Which AC50 [1] does the source give for CNC(=O)c1c(NC(=O)/C=C/c2ccccc2)sc2c1CCC2 here?
A: Its AC50 is 12.6 µM [rising, single point].

Q: For CCOc1cc(/C=C(/C#N)C(=O)Nc2ccc(O)cc2)cc(Br)c1O, which AC50 [1] is on record?
A: The AC50 was 1.26 µM [rising, partial curve].

Q: Which AC50 [2] does the source give for Cc1cc(NC(=O)COC(=O)c2ccco2)no1 here?
A: The AC50 was 0.355 µM [falling, full curve].

Q: With COC(=O)c1ccc(/C=C/C(=O)c2ccc(OC)c(OC)c2)cc1 as the compound, how does the AC50 [2] read?
A: Its AC50 is 11.2 µM [falling, single point].

Q: And the AC50 [1]?
A: Its AC50 is 20 µM [falling, single point].

Q: With N#CCSc1nc2ccc(N3CCCCC3)cc2c(=O)n1Cc1ccccc1 as the compound, how does the AC50 [2] read?
A: Its AC50 is 3.16 µM [falling, single point].

Q: And the AC50 [1]?
A: Its AC50 is 3.98 µM [falling, partial curve].

Q: Which AC50 [1] does the source give for CC(=O)NC1=C(C#N)C(c2ccccc2)c2c(ccc3ccccc23)O1 (centres undefined) here?
A: Its AC50 is 28.2 µM [rising, single point].

Q: With O=C(N1CCCCC1)N1CCN(S(=O)(=O)c2ccc(Cl)cc2)CC1 as the compound, how does the AC50 [2] read?
A: The AC50 was 2 µM [falling, partial curve].

Q: For CSCCC(NC(C)=O)C(=O)OCC(=O)N(c1ccccc1)c1ccccc1 (centres undefined), which AC50 [1] is on record?
A: The AC50 was 7.08 µM [falling, full curve, poor fit].

Q: With COc1ccc(C(=O)/C=C/C(=O)N(Cc2ccc(F)cc2)C(C(=O)NC2CCCCC2)c2ccncc2)c(O)c1 (centres undefined) as the compound, how does the AC50 [2] read?
A: The AC50 was 31.6 µM [rising, single point].

Q: And the AC50 [1]?
A: The AC50 was 35.5 µM [rising, single point].

Q: What does the source list for Cc1ccc(N(CC(=O)NC(C)(C)C)C(=O)CNC(=O)c2cccs2)c(C)c1?
A: AC50 [2]: 8.91 µM [falling, partial curve, poor fit]; AC50 [1]: 12.6 µM [falling, partial curve, poor fit]

Q: With O=C(c1ccccc1)c1cc([N+](=O)[O-])ccc1N1CCOCC1 as the compound, how does the AC50 [1] read?
A: The AC50 was 2 µM [rising, partial curve, poor fit].

Q: With O=C(c1ccccc1)c1nn(-c2ccccc2)c2nnc(Cc3ccccc3)c(=O)n12 as the compound, how does the AC50 [1] read?
A: The AC50 was 35.5 µM [rising, single point].

Q: With CNC(=S)NNC(=O)c1cccc(N(C)C)c1 as the compound, how does the AC50 [1] read?
A: The AC50 was 11.2 µM [rising, partial curve].

Q: For CCCC(=O)Nc1nc2ccc(NC(=O)c3c(F)c(F)c(OC)c(F)c3F)cc2s1, which AC50 [1] is on record?
A: Its AC50 is 39.8 µM [falling, partial curve, poor fit].

Q: Which AC50 [2] does the source give for CCCCn1c(SCc2cccc([N+](=O)[O-])c2)nc2ccsc2c1=O here?
A: The AC50 was 10 µM [rising, partial curve].

Q: What about the AC50 [1] of the same compound?
A: The AC50 was 14.1 µM [rising, partial curve].

Q: For Cc1sc2ncnc(NCC(C)(C)N3CCOCC3)c2c1C, which AC50 [2] is on record?
A: The AC50 was 7.08 µM [rising, full curve, poor fit].

Q: And the AC50 [1]?
A: The AC50 was 8.91 µM [rising, partial curve].

Q: For CC(C)Cn1c(SCC(=O)NC(=O)NC2CCCC2)nc2ccccc21, which AC50 [1] is on record?
A: Its AC50 is 12.6 µM [rising, partial curve].

Q: For O=C(O)c1ccc(N2CCOCC2)c(N2C(=O)C3C4C=CC(C4)C3C2=O)c1 (centres undefined), which AC50 [2] is on record?
A: The AC50 was 0.0178 µM [rising, full curve, poor fit].

Q: Which AC50 [1] does the source give for Cc1ccc(C(NC(=O)C2CCCCC2)c2c(O)ccc3ccccc23)cc1 (centres undefined) here?
A: Its AC50 is 15.8 µM [rising, partial curve].

Q: With COc1ccc(Cl)cc1-n1c(C)cc(C(=O)OCC(=O)N2CC(=O)Nc3ccccc32)c1C as the compound, how does the AC50 [2] read?
A: The AC50 was 17.8 µM [rising, single point].

Q: What about the AC50 [1] of the same compound?
A: The AC50 was 25.1 µM [rising, partial curve].

Q: For CC1CCCC(C)N1C(=O)Cn1c(SCC(=O)Nc2ccc3c(c2)OCO3)nc2ccccc21 (centres undefined), which AC50 [1] is on record?
A: Its AC50 is 12.6 µM [rising, single point].

Q: With CC(C)(C)c1ccccc1OCCOCCNCc1ccccc1 as the compound, how does the AC50 [2] read?
A: The AC50 was 11.2 µM [rising, single point].

Q: Which AC50 [2] does the source give for COCCCNC(=S)Nc1ccc(OC(F)F)cc1C here?
A: The AC50 was 31.6 µM [falling, single point].

Q: For COc1ccc(OCCCC(=O)Nc2nccs2)cc1, which AC50 [1] is on record?
A: Its AC50 is 2 µM [falling, partial curve].

Q: For O=C1CCCc2c1cc(-c1ccccc1)n2-c1ccc(O)cc1, which AC50 [2] is on record?
A: Its AC50 is 10 µM [rising, partial curve].

Q: And the AC50 [1]?
A: Its AC50 is 12.6 µM [rising, partial curve].

Q: What does the source list for Cc1ccc(-n2ncc3c(NCCCN4CCCC4=O)ncnc32)c(C)c1?
A: AC50 [2]: 1.12 µM [rising, partial curve, poor fit]; AC50 [1]: 11.2 µM [rising, single point]

Q: Which AC50 [2] does the source give for COc1ccc(CCc2nnc(CCC(=O)NCc3cc(C(C)C)no3)o2)cc1 here?
A: The AC50 was 2.24 µM [rising, partial curve].

Q: And the AC50 [1]?
A: The AC50 was 1.26 µM [rising, partial curve].

Q: For COc1ccc(CNC(=O)C(c2ccc(C)o2)N(Cc2cccs2)C(=O)Cc2cccs2)cc1 (centres undefined), which AC50 [1] is on record?
A: Its AC50 is 22.4 µM [rising, single point].

Q: With CC(=O)OC(C(=O)NC1CCCCC1)c1ccc(C#N)cc1 (centres undefined) as the compound, how does the AC50 [2] read?
A: The AC50 was 5.62 µM [rising, single point].

Q: With CCCC(=O)Nc1ccc2c(c1)nc(CN1CCN(C(=O)OCC)CC1)n2C(C)C as the compound, how does the AC50 [1] read?
A: The AC50 was 0.251 µM [rising, full curve].

Q: Which AC50 [2] does the source give for CC(=O)OCC1=C(C(=O)O)N2C(=O)C(NC(=O)C(C)Cn3nc(C)c(Cl)c3C)C2SC1 (centres undefined) here?
A: Its AC50 is 31.6 µM [rising, single point].

Q: With CCOc1ccc(CNC(=O)c2ccc(Sc3ccc(Cl)cc3)c(NC(C)=O)c2)cc1 as the compound, how does the AC50 [2] read?
A: Its AC50 is 17.8 µM [rising, single point].

Q: And the AC50 [1]?
A: Its AC50 is 25.1 µM [rising, single point].

Q: With N#Cc1cccc(-c2nc(Nc3ccccc3)c3ccccc3n2)c1 as the compound, how does the AC50 [1] read?
A: Its AC50 is 6.31 µM [falling, partial curve, poor fit].

Q: With CCCCC1CC(CSC(=N)N)OC1=O (centres undefined) as the compound, how does the AC50 [2] read?
A: Its AC50 is 15.8 µM [rising, single point].

Q: Which AC50 [2] does the source give for c1ccc2[nH]c(-c3cscn3)nc2c1 here?
A: The AC50 was 2.24 µM [rising, partial curve, poor fit] and 2.82 µM [rising, partial curve].

Q: Which AC50 [2] does the source give for O=C(Nc1ccc(C(=O)N2CCN(c3ccc(F)cc3)CC2)cc1)c1nsc2ccccc12 here?
A: Its AC50 is 0.316 µM [rising, partial curve, poor fit].

Q: For CCN1CCN(CCCNC(=O)c2ccc3nc(Cc4ccc(OC)cc4)oc3c2)CC1, which AC50 [1] is on record?
A: The AC50 was 0.00316 µM [falling, full curve, poor fit].

Q: Which AC50 [1] does the source give for O=C(Nc1nc2nc(-c3ccccc3)cc(-c3ccccc3)n2n1)c1ccco1 here?
A: The AC50 was 22.4 µM [rising, single point].

Q: Which AC50 [2] does the source give for CCS(=O)(=O)n1nc(-c2cccnc2)nc1NCc1ccc(F)cc1 here?
A: Its AC50 is 6.31 µM [rising, single point].

Q: With CCCCN(CCCC)c1ncnc2c1cnn2-c1cccc(C)c1 as the compound, how does the AC50 [1] read?
A: The AC50 was 10 µM [rising, single point].

Q: For O=C(NCc1ccc(F)cc1)c1ccc[nH]1, which AC50 [2] is on record?
A: Its AC50 is 0.891 µM [falling, full curve, poor fit].

Q: What about the AC50 [1] of the same compound?
A: The AC50 was 1.26 µM [falling, full curve, poor fit].

Q: Which AC50 [2] does the source give for C#CC[N+](C)(C)CCCCCCCCCC here?
A: The AC50 was 35.5 µM [falling, single point].

Q: Which AC50 [2] does the source give for Cc1ccc([N+](=O)[O-])cc1NC(=O)c1ccc(CSc2ccccc2)cc1 here?
A: Its AC50 is 5.62 µM [falling, single point].

Q: Which AC50 [2] does the source give for O=C(CCN1CCN(c2ccc(Cl)cc2)CC1)Nc1ccccc1F here?
A: The AC50 was 8.91 µM [rising, partial curve].

Q: What about the AC50 [1] of the same compound?
A: The AC50 was 11.2 µM [rising, partial curve].

Q: For COc1ccc2[nH]cc(CCNc3ncnc4ccc(-c5ccc(C(=O)N(C)C)cc5)cc34)c2c1, which AC50 [2] is on record?
A: The AC50 was 20 µM [falling, partial curve].

Q: What about the AC50 [1] of the same compound?
A: Its AC50 is 35.5 µM [falling, partial curve, poor fit].

Q: Which AC50 [2] does the source give for COc1ccc2cc(CN(Cc3ccco3)C(=S)NCC3CCCO3)c(=O)[nH]c2c1 (centres undefined) here?
A: The AC50 was 0.00316 µM [falling, full curve, poor fit].

Q: Which AC50 [1] does the source give for CC(=O)N1CCCc2cc(S(=O)(=O)N3CCC(C(=O)N(Cc4ccccc4)C(C)C)CC3)ccc21 here?
A: Its AC50 is 0.02 µM [falling, full curve, poor fit].

Q: What does the source list for C=CCNC(=O)c1ccc(-c2nc(-c3ccc(Cl)c(Cl)c3)cs2)cc1?
A: AC50 [2]: 25.1 µM [falling, partial curve, poor fit]; AC50 [1]: 35.5 µM [falling, single point]

Q: For N#Cc1cc([N+](=O)[O-])ccc1Oc1cccc(/C=N/NC(=O)c2ccc(Cl)cc2)c1, which AC50 [1] is on record?
A: The AC50 was 22.4 µM [rising, single point].

Q: For COc1ccccc1NC(=O)CN1CCC(c2nc3ccccc3[nH]2)CC1, which AC50 [2] is on record?
A: The AC50 was 0.0224 µM [rising, full curve, poor fit].

Q: For Cc1ccc(C(=O)Nc2ncc(Cc3ccc(F)cc3)s2)o1, which AC50 [2] is on record?
A: Its AC50 is 31.6 µM [rising, single point].

Q: What about the AC50 [1] of the same compound?
A: The AC50 was 15.8 µM [rising, single point].

Q: With O=S(=O)(Nc1ccc(-c2ccc(N3CCCCC3)nn2)cc1)c1ccc(OC(F)(F)F)cc1 as the compound, how does the AC50 [2] read?
A: Its AC50 is 35.5 µM [falling, single point].

Q: With CCCn1cc(S(=O)(=O)c2cccc(Cl)c2)c(=O)c2cc(F)c(N3CCOCC3)cc21 as the compound, how does the AC50 [1] read?
A: Its AC50 is 2.24 µM [rising, partial curve, poor fit].

Q: With Cc1csc(NC(=O)Cc2nn(C)c(=O)c3ccccc23)n1 as the compound, how does the AC50 [2] read?
A: The AC50 was 4.47 µM [rising, single point].

Q: And the AC50 [1]?
A: The AC50 was 12.6 µM [rising, single point].
